# Library screen at single concentrations

Results are given as percent effect. The record does not define 0% and 100%; most values in the screen are far below 50% and negative numbers occur (in some assays of this library far below -100). This is an unselected part of the compounds tested. Two or more numbers in one place are separate tests of the same structure; such repeats can differ widely.

Mtb glucose medium: 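Growth of Mycobacterium tuberculosis over 3 days (7H9 medium with glucose and tyloxapol); the read-out is not stated. Concentration: 50 µM. Higher reads as more growth inhibition (inferred: compounds with an IC50 in retests scored well above the rest). Of about 69,000 compounds tested this way, about 760 (1.1%) reached 50% or more in at least one test.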
Mtb cholesterol medium: 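Whole-cell growth test on Mycobacterium tuberculosis, read after 4 days in a medium based on cholesterol and the lipid DPPC; the read-out is not stated. Tested at 50 µM. Higher reads as more growth inhibition (inferred: compounds with an IC50 in retests scored well above the rest). About 69,000 compounds were tested under these conditions; 0.54% (about 370) showed 50% or more at least once.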

Result for CN1CC2(CCCN(C(=O)c3cnc4ccc(F)cc4c3O)C2)OC1=O (stereo unspecified) was Mtb glucose medium: -32.96%; Mtb cholesterol medium: -24.65%. For CCc1nsc(N2CCOC3(CCCC3)C2)n1 the result was Mtb glucose medium: 6.598%; Mtb cholesterol medium: -11.59% & -3.121%. With O=C(C1CCS(=O)(=O)CC1)N1CCC(Cc2ccc(F)cc2)CC1 the screen gave Mtb glucose medium: -45.36%; Mtb cholesterol medium: -31.74%. Result for O=C(CSc1ccc2c(c1)OCCO2)NS(=O)(=O)c1cc(F)ccc1F was Mtb glucose medium: -15.63%; Mtb cholesterol medium: -28.94%. Cc1ccc(-c2cc(N)c(=O)n(C(C)C(=O)NC(C)C)n2)o1 (stereo unspecified) read Mtb glucose medium: -4.604%; Mtb cholesterol medium: -20.23% & 3.582%.

For COCC1CN(Cc2ccc(C)o2)Cc2cnn(CC3CCOCC3)c21.O=C(O)C(F)(F)F.O=C(O)C(F)(F)F (stereo unspecified) the result was Mtb glucose medium: 4.645% & 7.392%; Mtb cholesterol medium: -4.822%. Result for Cc1ccc(C2COCCN2C(=O)c2ccc(CN(C)C)cc2)o1 (stereo unspecified) was Mtb glucose medium: -17.16%; Mtb cholesterol medium: 17.7%. CC(C)NC(=O)CN(C1CC1)C(C)C1CC1 (stereo unspecified) read Mtb glucose medium: 10.64% & 2.328%; Mtb cholesterol medium: 3.432%. COCc1nccc(C2CCCN(Cc3ccc(C#N)cc3)C2)n1 (stereo unspecified) gave Mtb glucose medium: 11.67%; Mtb cholesterol medium: 6.544%. With Cc1nn(Cn2ccc(C(=O)N3CCCC(C)C3)n2)c(C)c1Cl (stereo unspecified) the screen gave Mtb glucose medium: 14.8% & 2.132%; Mtb cholesterol medium: 1.066%.

Cc1nn2cnnc2c(C)c1CCC(=O)Nc1nnc(C2CC2)s1 gave Mtb glucose medium: 14.28% & -0.8349%; Mtb cholesterol medium: -2.928%. CCc1nc(CN2CCCN(C(=O)CC3CCCC3)CC2)cs1 read Mtb glucose medium: -3.391%; Mtb cholesterol medium: 0.5554%. Result for CCOc1cccc(CNCc2ccc(NC(=O)NC(C)C)cc2)c1 was Mtb glucose medium: 23.29%; Mtb cholesterol medium: 0.2223%. COc1ccc(CN2CCOC[C@H]2c2nc(-c3ccncc3)c[nH]2)cc1 read Mtb glucose medium: -31.08% & -4.667%; Mtb cholesterol medium: -25.43%. Cc1nccc(C2CN(S(=O)(=O)N(C)C)C2)n1 read Mtb glucose medium: -7.137%; Mtb cholesterol medium: 2.849%.

Result for CN([C@@H]1CC[C@@H](N2CCCC2)[C@@H]1O)S(=O)(=O)c1ccccc1 was Mtb glucose medium: -8.192%; Mtb cholesterol medium: -10.36% & -9.74%. O=C(CCCNC(=O)Nc1ccc(F)cc1)Nc1cn[nH]c1 gave Mtb glucose medium: 17.12%; Mtb cholesterol medium: 10.81%. With CC(Oc1ccccc1)C(=O)N1CCCN(Cc2cscn2)CC1 (stereo unspecified) the screen gave Mtb glucose medium: -17.43%; Mtb cholesterol medium: -24.16%. With O=C(C1CCOC1)N1CCC2(CC1)Cc1ccccc1CNC2=O (stereo unspecified) the screen gave Mtb glucose medium: -2.486%; Mtb cholesterol medium: -15.93%. For Cn1nc(C2CCCN(C(=O)CO)C2)cc1O (stereo unspecified) the result was Mtb glucose medium: -20.14%; Mtb cholesterol medium: -12.45%.

Result for CCn1nccc1CNc1[nH]cnc2nc(C)nc1-2 was Mtb glucose medium: -13.89%; Mtb cholesterol medium: -18.18%. CO[C@H]1CN(C(=O)OC(C)(C)C)CC1NCc1cccn1C (stereo partly specified) gave Mtb glucose medium: 9.443%; Mtb cholesterol medium: -10.12%. With CC(=O)N1CCN(C(=O)c2ccc(Sc3ccccn3)cc2)CC1 the screen gave Mtb glucose medium: -5.212% & -5.029%; Mtb cholesterol medium: -9.427%. Result for CC1CN(C)CCN1C(=O)c1ccn(-c2cccc(F)c2)n1 (stereo unspecified) was Mtb glucose medium: 11.73%; Mtb cholesterol medium: -4.565%. For [H][C@@]12CN(Cc3cc4ccccc4o3)C[C@]1([H])N(Cc1ccccn1)C(=O)O2 the result was Mtb glucose medium: 18.85%; Mtb cholesterol medium: 0.1893%.

With CCCn1ncc(C(=O)N2CCN(C3CCCC3)CC2)c1C the screen gave Mtb glucose medium: -7.447% & 0.7462%; Mtb cholesterol medium: -11.52%. Result for COC(=O)c1ccoc1COC(=O)CCc1ccc(OC)c(OC)c1 was Mtb glucose medium: 14.81% & 12.36%; Mtb cholesterol medium: 3.564%. With Cc1nc(CN2CCC3(CC2)NC(=O)CC3c2ccccc2)cs1.O=C(O)C(F)(F)F (stereo unspecified) the screen gave Mtb glucose medium: 27.22%; Mtb cholesterol medium: 16.17%. CC(c1ccon1)N(C)C(=O)C1CCN(C(=O)C2CC2)CC1 (stereo unspecified) gave Mtb glucose medium: 23.27%; Mtb cholesterol medium: -0.417%. For CCC(C)NC(=O)c1snnc1-c1ccc(OC)cc1 (stereo unspecified) the result was Mtb glucose medium: -4.175% & -6.151%; Mtb cholesterol medium: 11.62%.

CCn1cc(CN2CCCN(C(=O)CCSC)CC2)cn1 gave Mtb glucose medium: -8.138%; Mtb cholesterol medium: -18.42%. CCOCc1nc(N2CCCC2)sc1C(=O)NCCC(=O)OCC gave Mtb glucose medium: 13.94%; Mtb cholesterol medium: -14.44%. For O=C(O)C(F)(F)F.[H][C@@]12COC[C@]1(COCC(=O)N(C)C)CN(Cc1nc(C)cs1)C2 the result was Mtb glucose medium: 6.004%; Mtb cholesterol medium: 1.857%. With COc1ccc(-c2noc([C@@H]3C[C@@H](O)CN3C3CCN(C)CC3)n2)cc1 the screen gave Mtb glucose medium: -27.22% & -5.678%; Mtb cholesterol medium: -10.31%. c1cc(C2CCN(c3cnccn3)CC2)ccn1 read Mtb glucose medium: -29.47%; Mtb cholesterol medium: -0.7029% & 2.914%.

Result for Cc1csc(N2CCN(C(=O)C3(C#N)CCCCC3)CC2)n1 was Mtb glucose medium: 8.515%; Mtb cholesterol medium: 5.079%. With O=C(NCc1ccc2c(c1)OCO2)Nc1cccnc1N1CCCC1 the screen gave Mtb glucose medium: -15.59%; Mtb cholesterol medium: -29.51%. Cc1ccc(C(=O)NS(=O)(=O)c2ccccc2F)c(=O)[nH]1 read Mtb glucose medium: 9.82% & -5.1%; Mtb cholesterol medium: 6.778%.

The first 3 entries again:

Compound	Mtb glucose medium	Mtb cholesterol medium
CN1CC2(CCCN(C(=O)c3cnc4ccc(F)cc4c3O)C2)OC1=O (stereo unspecified)	-32.96	-24.65
CCc1nsc(N2CCOC3(CCCC3)C2)n1	6.598	-11.59 & -3.121
O=C(C1CCS(=O)(=O)CC1)N1CCC(Cc2ccc(F)cc2)CC1	-45.36	-31.74

Measurements from “University of Dundee, Small-Polar-MMV Screening Library” (2021), ChEMBL document CHEMBL3988442.